PubChem BioAssay AID686938 – Drosophila RNAi Screening Center – 2013

- Test: 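Looking for CRAC channel components and the factors controlling them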 (primary screen)
- Cell system: Drosophila S2R+ cells
- Reagents: long dsRNA against Drosophila genes, about 0.25 µg dsRNA per well, roughly 10,000 cells
- Timing: 5 days of knock-down before the calcium assay
- Treatment: thapsigargin (SERCA pump blocker) to empty calcium stores; entry signal taken 4 min after adding it
- Read-out: 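Duplicate raw fluo-4 intensities per well from a plate reader, at rest and four minutes after thapsigargin emptied calcium stores; entry-to-rest ratio filled for only some wells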
- Reading the numbers: calcium entry signal: higher = stronger calcium signal after store depletion; entry to resting ratio: higher = more calcium entry relative to resting level; resting calcium signal: higher = higher resting calcium signal
- Call rule: 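Called when the plate z-score of the entry-to-rest ratio, mean of duplicates, falls below −3; wells with low overall dye signal (Fmax z below −2) or more than five off-targets excluded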
- Meaning of the calls: active = strongly reduced calcium entry; inactive = no strong reduction
In all, the deposit lists about 23,000 reagents; below is a random part of those with a known target gene and a result. Of all reagents, 75 (0.33%) are marked active. 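Raw plate signals without normalisation; calls rest on plate z-scores that were not deposited; ratio present for only 364 wells.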 Names joined by + are all predicted targets of the reagent. Reagent sequences are not shown. The record does not give: the dose of the treatment.

gene knocked down,amplicon,"calcium entry signal, replicate 1 (fluorescence units)","calcium entry signal, replicate 2 (fluorescence units)",entry to resting ratio,"resting calcium signal, replicate 1 (fluorescence units)","resting calcium signal, replicate 2 (fluorescence units)",call
Gr66a (Gustatory receptor 66a),DRSC10783,2.05e7,3.05e7,,1.02e7,1.39e7,inactive
Nmnat (Nicotinamide mononucleotide adenylyltransferase),DRSC14644,4.25e7,3.62e7,,2.02e7,1.70e7,inactive
CG32182,DRSC09508,3.99e7,4.02e7,,1.71e7,1.86e7,inactive
CG11630,DRSC03696,3.66e7,4.52e7,,1.90e7,2.04e7,inactive
GstE1 (Glutathione S transferase E1),DRSC07437,3.90e7,5.51e7,,1.80e7,2.74e7,inactive
Usp47 (Ubiquitin specific protease 47),DRSC11313,3.49e7,2.80e7,,2.34e7,1.13e7,inactive
phol (pleiohomeotic like),DRSC10367,5.27e7,5.04e7,,3.63e7,2.26e7,inactive
CG16756,DRSC18115,2.25e7,2.31e7,,1.08e7,1.13e7,inactive
CG10343,DRSC02041,2.08e7,3.37e7,,1.06e7,1.56e7,inactive
CecA1 (Cecropin A1),DRSC16603,2.56e7,2.77e7,,1.42e7,1.42e7,inactive
Hpd (4-hydroxyphenylpyruvate dioxygenase),DRSC11670,3.61e7,3.76e7,,1.54e7,2.65e7,inactive
CG12194,DRSC00345,2.64e7,2.91e7,,1.40e7,1.28e7,inactive
Daao1 (D-amino acid oxidase 1),DRSC06131,3.95e7,4.02e7,,1.92e7,1.82e7,inactive
Gr93a (Gustatory receptor 93a),DRSC14593,4.36e7,3.83e7,,5.58e7,1.89e7,inactive
Flad2 (Flavin adenine dinucleotide synthetase 2),DRSC02531,3.12e7,2.23e7,,1.50e7,1.07e7,inactive
tutl (turtle),DRSC00441,2.30e7,2.61e7,,1.21e7,1.24e7,inactive
tutl (turtle),DRSC00442,2.27e7,2.52e7,,1.08e7,1.19e7,inactive
tutl (turtle),DRSC00443,1.93e7,2.34e7,,1.09e7,1.22e7,inactive
DAAM (Dishevelled Associated Activator of Morphogenesis),DRSC18479,4.75e7,2.91e7,,2.19e7,1.47e7,inactive
CG10953,DRSC06021,4.20e7,5.46e7,,1.89e7,2.65e7,inactive
dob (doppelganger von brummer),DRSC19948,3.41e7,3.85e7,,1.63e7,1.82e7,inactive
drosha,DRSC07607,3.05e7,2.94e7,,1.27e7,1.23e7,inactive
NaPi-T (Na[+]-dependent inorganic phosphate cotransporter),DRSC07476,3.40e7,4.06e7,,1.72e7,1.74e7,inactive
scu (scully),DRSC20369,3.36e7,3.39e7,,1.70e7,1.58e7,inactive
CG4766,DRSC17736,3.13e7,3.57e7,,1.57e7,1.70e7,inactive
Sec24CD (Secretory 24CD),DRSC00300,2.75e7,,,1.76e7,,inactive
CG43894,DRSC09225,3.95e7,2.45e7,,1.90e7,1.10e7,inactive
CG43894,DRSC10123,2.53e7,3.31e7,,1.46e7,1.66e7,inactive
Obp28a (Odorant-binding protein 28a),DRSC03394,3.67e7,3.84e7,,1.74e7,1.72e7,inactive

Continued (4 carried over from the part before).
gene knocked down,amplicon,"calcium entry signal, replicate 1 (fluorescence units)","calcium entry signal, replicate 2 (fluorescence units)",entry to resting ratio,"resting calcium signal, replicate 1 (fluorescence units)","resting calcium signal, replicate 2 (fluorescence units)",call
Sec24CD (Secretory 24CD),DRSC00300,2.75e7,,,1.76e7,,inactive
CG43894,DRSC09225,3.95e7,2.45e7,,1.90e7,1.10e7,inactive
CG43894,DRSC10123,2.53e7,3.31e7,,1.46e7,1.66e7,inactive
Obp28a (Odorant-binding protein 28a),DRSC03394,3.67e7,3.84e7,,1.74e7,1.72e7,inactive
dj-1beta,DRSC14599,4.36e7,6.44e7,,2.16e7,2.60e7,inactive
l(1)G0004 (lethal (1) G0004),DRSC20486,2.03e7,2.24e7,,1.14e7,1.28e7,inactive
spel1 (spellchecker1),DRSC03617,5.18e7,3.72e7,,2.31e7,1.66e7,inactive
"Polr2F (RNA polymerase II, I and III subunit F)",DRSC12366,1.11e7,1.51e7,,8.16e6,1.13e7,inactive
LpR1 (Lipophorin receptor 1),DRSC15665,2.76e7,3.28e7,,1.24e7,1.58e7,inactive
LpR1 (Lipophorin receptor 1),DRSC15669,3.92e7,4.29e7,,1.82e7,1.87e7,inactive
LpR1 (Lipophorin receptor 1),DRSC15670,4.36e7,3.83e7,,2.03e7,1.64e7,inactive
TTLL1B (Tubulin tyrosine ligase-like 1B),DRSC08594,2.58e7,3.21e7,,1.28e7,1.50e7,inactive
slow (slowdown),DRSC08589,4.50e7,3.94e7,,3.01e7,1.72e7,inactive
slow (slowdown),DRSC08590,1.68e7,3.01e7,,8.86e6,1.32e7,inactive
PIP4K (Phosphatidylinositol 5-phosphate 4-kinase),DRSC17213,5.00e7,5.71e7,2.1,2.39e7,2.53e7,inactive
Mkp + CG34140,DRSC08585,4.21e7,4.24e7,,1.92e7,2.06e7,inactive
mmd (mind-meld),DRSC19672,5.57e7,3.49e7,,2.73e7,1.47e7,inactive
mmd (mind-meld),DRSC19673,4.65e7,2.98e7,,2.16e7,1.34e7,inactive
mmd (mind-meld),DRSC20161,4.27e7,2.87e7,,2.02e7,1.40e7,inactive
mmd (mind-meld),DRSC23042,4.84e7,3.23e7,,2.52e7,1.45e7,inactive
CG7706,DRSC16295,2.56e7,2.76e7,,1.23e7,1.14e7,inactive
CD98hc (CD98 heavy chain),DRSC15453,4.73e7,3.28e7,,2.15e7,1.54e7,inactive
upSET,DRSC11051,1.75e7,2.72e7,,1.04e7,2.17e7,inactive
upSET,DRSC23289,4.33e7,4.16e7,,1.90e7,1.68e7,inactive
CG17778,DRSC18504,3.30e7,2.45e7,2.5,1.34e7,1.09e7,inactive
CG12768,DRSC11680,2.71e7,4.46e7,,1.32e7,1.94e7,inactive
CG12768,DRSC23215,3.86e7,4.03e7,,1.91e7,1.85e7,inactive
asRNA:CR43470 + CG14830,DRSC10200,2.44e7,3.75e7,,1.27e7,1.76e7,inactive
PpD3 (Protein phosphatase D3),DRSC16796,3.97e7,3.46e7,,1.95e7,1.79e7,inactive
Top2 (Topoisomerase 2),DRSC03459,3.25e7,3.88e7,,1.97e7,2.13e7,inactive
CG15025,DRSC15031,4.52e7,4.42e7,,6.34e7,2.26e7,inactive
CG5510,DRSC15823,4.78e7,5.32e7,,2.24e7,2.35e7,inactive
CG31639,DRSC00910,3.12e7,3.60e7,,1.74e7,1.76e7,inactive
TM9SF2 (Transmembrane 9 superfamily protein member 2),DRSC03197,2.13e7,,,1.19e7,,inactive
dpr4 (defective proboscis extension response 4),DRSC14531,3.19e7,3.34e7,,1.57e7,1.69e7,inactive
dpr4 (defective proboscis extension response 4),DRSC14929,2.70e7,3.30e7,,1.38e7,1.69e7,inactive
Nnf1a,DRSC06394,1.95e7,3.21e7,,1.01e7,1.42e7,inactive
CG5111,DRSC15717,4.23e7,3.64e7,,2.00e7,1.73e7,inactive
Tsp33B (Tetraspanin 33B),DRSC02418,3.24e7,4.86e7,,1.73e7,2.09e7,inactive
cher (cheerio),DRSC16924,3.83e7,3.51e7,,1.91e7,1.61e7,inactive
ZnT41F (Zinc transporter 41F),DRSC04850,3.80e7,,,1.84e7,,inactive
Acp26Aa (Accessory gland protein 26Aa),DRSC01855,3.76e7,3.39e7,,1.78e7,1.69e7,inactive
RpL19 (Ribosomal protein L19),DRSC04649,6.46e6,,,5.77e6,,inactive
PolH (DNA polymerase eta),DRSC11800,3.76e7,5.15e7,,1.91e7,3.38e7,inactive
Sqor (Sulfide quinone oxidoreductase),DRSC08453,4.20e7,3.24e7,,2.81e7,1.41e7,inactive
mst (misato),DRSC20582,4.23e7,4.29e7,,1.94e7,1.65e7,inactive
CG31729,DRSC02524,4.09e7,,,2.19e7,,inactive
CG31729,DRSC02946,3.33e7,1.93e7,,1.54e7,9.56e6,inactive
Rbp1 (RNA-binding protein 1),DRSC16817,4.99e7,6.11e7,,1.89e7,2.57e7,inactive
CG13437,DRSC06397,2.91e7,3.42e7,,1.44e7,1.47e7,inactive
